The test has as its target T1, CARMA1 (endogenous, primary mouse CD4 T cells) (mouse (endogenous in primary CD4 T cells)) (UniProt Q8CIS0).
T1 sequence: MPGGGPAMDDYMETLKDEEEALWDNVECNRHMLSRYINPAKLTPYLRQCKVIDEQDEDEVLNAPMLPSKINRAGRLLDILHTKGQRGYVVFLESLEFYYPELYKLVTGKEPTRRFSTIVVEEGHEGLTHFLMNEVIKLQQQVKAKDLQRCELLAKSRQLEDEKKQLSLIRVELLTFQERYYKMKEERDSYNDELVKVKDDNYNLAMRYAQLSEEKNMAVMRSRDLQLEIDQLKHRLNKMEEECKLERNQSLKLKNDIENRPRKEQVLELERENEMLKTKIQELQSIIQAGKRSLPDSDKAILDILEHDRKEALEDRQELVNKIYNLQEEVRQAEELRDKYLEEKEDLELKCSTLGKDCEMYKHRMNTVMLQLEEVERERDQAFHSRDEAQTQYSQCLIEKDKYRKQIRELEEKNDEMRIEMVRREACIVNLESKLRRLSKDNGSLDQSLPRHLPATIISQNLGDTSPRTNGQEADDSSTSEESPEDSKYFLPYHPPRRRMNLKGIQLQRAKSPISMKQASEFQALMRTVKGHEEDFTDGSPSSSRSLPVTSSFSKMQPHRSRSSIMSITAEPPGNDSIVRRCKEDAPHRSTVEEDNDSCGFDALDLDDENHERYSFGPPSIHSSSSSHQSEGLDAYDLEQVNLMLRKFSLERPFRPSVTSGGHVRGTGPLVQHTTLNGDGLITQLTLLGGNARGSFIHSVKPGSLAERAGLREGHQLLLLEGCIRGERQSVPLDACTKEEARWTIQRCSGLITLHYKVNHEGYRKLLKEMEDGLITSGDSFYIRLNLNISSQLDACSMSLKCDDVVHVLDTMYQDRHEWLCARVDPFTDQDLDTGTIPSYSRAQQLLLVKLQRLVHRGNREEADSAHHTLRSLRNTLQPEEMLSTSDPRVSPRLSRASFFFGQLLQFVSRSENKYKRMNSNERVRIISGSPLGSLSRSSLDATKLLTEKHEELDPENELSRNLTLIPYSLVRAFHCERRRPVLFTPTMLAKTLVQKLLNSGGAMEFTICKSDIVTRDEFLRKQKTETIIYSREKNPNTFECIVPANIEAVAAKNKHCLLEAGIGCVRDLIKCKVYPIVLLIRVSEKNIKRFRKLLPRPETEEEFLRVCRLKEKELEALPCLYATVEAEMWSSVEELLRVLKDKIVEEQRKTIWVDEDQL
The experiment in a line: co-IP; endogenous proteins; primary mouse CD4 T cells untreated or stimulated with P/I; anti-CARMA1 IP, Western Blotting.

These are yes or no findings as the source states them, for the method shown. In cells and extracts the contact can be indirect. Some binding calls cover weakened binding; strength is not graded here.

Experimental findings from paper PMC4222456 are described below.

B1: AIP (endogenous, primary mouse CD4 T cells) (protein, UniProt O08915 1-330)
chain: MADLIARLREDGIQKRVIQEGRGELPDFQDGTKATFHFRTLHSDNEGSVIDDSRTRGKPMELIVGKKFKLPVWETIVCTMREGEIAQFLCDIKHVVLYPLVAKSLRNIAEGKDPLEGQRHCCGIAQMHEHSSLGHADLDALQQNPQPLIFHIEMLKVESPGTYQQDPWAMTDEEKAKAVPVIHQEGNRLYREGQVKEAAAKYYDAIACLKNLQMKEQPGSPDWIQLDLQITPLLLNYCQCKLVAQEYYEVLDHCSSILNKYDDNVKAYFKRGKAHAAVWNAQEAQADFAKVLELDPALAPVVSRELRALETRIRQKDEEDKARFRGIFSH
As for B1, the binding entry is on record as “binds”.
